Entries after “also recorded” stand apart in the source; their conditions may differ. For some of these results: Part of at least one peptide drawing is inferred or uncertain, most often the ends. For some of these results: For at least one compound, name, drawing or mass did not settle the structure. Where no end group is shown, it is not given here.
Key:
Assay type in all cases: cell-based, human
CD46 = CD46 receptor expression after treatments in vitro (flow cytometry); conditions: LNZ308 cells, 48 h
IFN-β = experiment: ELISA of supernatants of treated LNZ308 cells; conditions: LNZ308, CT-VT-RT with or without molecular inhibitors (BX795 10 µM, fludarabine 100 µM)
Description: LNZ308 cells were seeded as 3×10^6 cells per dish and treated with different regimens as described above, supernatants were harvested after 96 hpt and concentrated using Amicon Ultra-15 Ultracel-3K centrifugal filters (Merck Millipore, Billerica, USA) with subsequent determination of total protein concentration using Bradford protein assay (Bio-Rad Laboratories). The respective chemokine/cytokine concentrations were determined enzymatically per microgram of total protein using the respective DuoSet ELISA kits according to manufacturer's instructions (R&D Systems, Minneapolis, USA).

STAT1 = experiment: qPCR mRNA expression in treated LNZ308 cells; conditions: inhibitor applied after CT-VT-RT treatment
Description: RNA extractions were performed using the RNeasy mini kit (Qiagen) and reversely transcribed to cDNA using High-Capacity RNA-to-cDNA kit (Thermo Fisher Scientific) according to manufacturer's instructions. For each qPCR reaction, 20 ng of cDNA were amplified with custom designed primers (Supplementary Table 1) and qPCR Mastermix Plus for SYBR Green (Eurogentec, Liege, Belgium) using the 7500 Fast Real time PCR system (Thermo Fisher Scientific). Relative gene expression was determined using the ΔΔ-CT method versus the housekeeping gene ARF1.

phospho-STAT1 (Y701) = experiment: Immunoblot analysis after CT-VT-RT with signalling inhibitors; conditions: inhibitor added to CT-VT-RT (BX795 10 µM, fludarabine 100 µM)
Description: Cells of interest were lysed in lysis buffer containing 25 mM Tris hydrochloric acid (Tris-HCI), 120 mM sodium chloride (NaCI), 5 mM ethylenediaminetetraacetic acid (EDTA), 0.5% NP-40 and phosphatase inhibitor cocktails (Sigma Aldrich). Proteins were separated on 4-12% polyacrylamide gels (Thermo Fisher Scientific) followed by transfer to PVDF membranes (Thermo Fisher Scientific). […] Antibody against TRAIL ([…]), LC3A ([…]) and β-tubulin (9F3) were purchased from Cell Signalling (Cell Signalling, Dan-vers, USA) and used at a dilution of 1:1,000. Anti-rabbit and Anti-mouse horseradish peroxidase coupled secondary antibodies were purchased from Abcam and used at a concentration of 1:5,000. TBK1/IKKε inhibitor, BX795 was purchased from Invivogen (Invivogen, San Diego, USA) and used at a concentration of 10 μM.

CCL5 = experiment: ELISA of supernatants of treated LNZ308 cells; conditions: inhibitor added to CT-VT-RT, in comparison to CT-VT-RT alone
healthy donor PBMCs = experiment: IFNγ ELISPOT assay after 12 day stimulation; conditions: 12-day recall IFN-γ ELISPOT, 1 µg/ml peptide, HLA-A*24 matched healthy donor PBMCs

Cn1nnc2c(C(N)=O)ncn2c1=O [TMZ, temozolomide]
CD46 surface expression (CD46; high dose TMZ 1,000 µM): significantly lowered CD46 levels; also recorded: impairs CD46 expression | CD46 surface expression (CD46; low dose TMZ 10 µM and 100 µM): increased CD46 expression; also recorded: increases CD46 surface expression

Nc1nc(F)nc2c1ncn2[C@@H]1O[C@H](CO)[C@@H](O)[C@@H]1O [fludarabine]
IFN-β protein (IFN-β): abolished; also recorded: complete loss of IFN-β production | STAT1 transcription (STAT1): downregulated | STAT1 protein phosphorylation (phospho-STAT1 (Y701)): downregulated; also recorded: complete loss of phospho-STAT1 (Y701) | CCL5 expression (CCL5): decrease

VYPRYSNFI [VYPRYSNFI, Val-Tyr-Pro-Arg-Tyr-Ser-Asn-Phe-Ile]
mean spot count (healthy donor PBMCs): 264.5

Reference: patent EP3539562A1, “IMMUNOTHERAPEUTIC PEPTIDES” (Eberhard Karls Universität Tübingen Medizinische Fakultät, priority 2018, dated 2019)
